# Laboratory results reported in PubChem BioAssay (EPA / NIEHS).
# Protein sequences, listed by entry. Tags and fused reporters are not part of them. Lines headed by an entry give the natural chain unless they say otherwise; changes in a name come on top.
# UniProt Q9Y233: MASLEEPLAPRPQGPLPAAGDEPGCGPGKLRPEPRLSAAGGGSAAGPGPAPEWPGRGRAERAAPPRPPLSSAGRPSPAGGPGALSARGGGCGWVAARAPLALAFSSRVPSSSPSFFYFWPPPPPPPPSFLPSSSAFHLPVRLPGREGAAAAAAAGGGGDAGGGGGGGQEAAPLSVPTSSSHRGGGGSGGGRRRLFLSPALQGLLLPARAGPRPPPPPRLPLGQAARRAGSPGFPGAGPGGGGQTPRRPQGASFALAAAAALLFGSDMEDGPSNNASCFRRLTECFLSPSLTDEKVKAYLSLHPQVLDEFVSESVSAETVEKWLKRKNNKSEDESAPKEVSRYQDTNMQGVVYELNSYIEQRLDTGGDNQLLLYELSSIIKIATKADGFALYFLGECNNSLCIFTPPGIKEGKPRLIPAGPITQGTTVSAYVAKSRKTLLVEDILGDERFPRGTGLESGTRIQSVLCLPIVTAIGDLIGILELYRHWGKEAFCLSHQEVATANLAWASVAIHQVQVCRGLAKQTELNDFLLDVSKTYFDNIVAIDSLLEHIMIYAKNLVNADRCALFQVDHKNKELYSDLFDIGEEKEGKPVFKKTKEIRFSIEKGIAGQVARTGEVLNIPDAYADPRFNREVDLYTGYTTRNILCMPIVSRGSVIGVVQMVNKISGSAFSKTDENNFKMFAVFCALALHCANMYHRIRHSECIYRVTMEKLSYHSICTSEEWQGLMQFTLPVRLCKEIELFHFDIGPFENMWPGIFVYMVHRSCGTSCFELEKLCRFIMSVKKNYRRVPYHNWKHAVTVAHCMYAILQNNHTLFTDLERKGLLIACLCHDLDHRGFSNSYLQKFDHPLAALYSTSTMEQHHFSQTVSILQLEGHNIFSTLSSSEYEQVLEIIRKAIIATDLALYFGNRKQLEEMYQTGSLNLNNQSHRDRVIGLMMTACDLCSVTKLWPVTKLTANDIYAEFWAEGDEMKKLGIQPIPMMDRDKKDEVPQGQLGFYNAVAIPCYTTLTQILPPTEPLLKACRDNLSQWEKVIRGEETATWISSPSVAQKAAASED
# UniProt P14780: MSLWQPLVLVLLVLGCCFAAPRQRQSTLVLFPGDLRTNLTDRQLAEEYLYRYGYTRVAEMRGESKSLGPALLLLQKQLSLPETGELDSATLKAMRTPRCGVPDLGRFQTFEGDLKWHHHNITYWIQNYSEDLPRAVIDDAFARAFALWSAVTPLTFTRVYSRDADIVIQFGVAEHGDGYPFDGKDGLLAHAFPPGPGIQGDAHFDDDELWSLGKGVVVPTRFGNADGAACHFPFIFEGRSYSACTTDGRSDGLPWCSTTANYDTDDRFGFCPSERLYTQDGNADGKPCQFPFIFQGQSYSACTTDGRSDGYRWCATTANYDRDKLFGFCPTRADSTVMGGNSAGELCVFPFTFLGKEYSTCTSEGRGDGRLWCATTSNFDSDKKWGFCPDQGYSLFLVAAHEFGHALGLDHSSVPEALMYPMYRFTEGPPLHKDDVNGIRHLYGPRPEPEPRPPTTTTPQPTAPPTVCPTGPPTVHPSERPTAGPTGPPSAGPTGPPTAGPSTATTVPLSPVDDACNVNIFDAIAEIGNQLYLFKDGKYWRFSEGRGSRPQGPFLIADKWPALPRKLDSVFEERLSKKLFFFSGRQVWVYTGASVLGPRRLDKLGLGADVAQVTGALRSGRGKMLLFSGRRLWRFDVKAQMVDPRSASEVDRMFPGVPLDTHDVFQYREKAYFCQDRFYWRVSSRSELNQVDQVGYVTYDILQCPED
# UniProt Q05209: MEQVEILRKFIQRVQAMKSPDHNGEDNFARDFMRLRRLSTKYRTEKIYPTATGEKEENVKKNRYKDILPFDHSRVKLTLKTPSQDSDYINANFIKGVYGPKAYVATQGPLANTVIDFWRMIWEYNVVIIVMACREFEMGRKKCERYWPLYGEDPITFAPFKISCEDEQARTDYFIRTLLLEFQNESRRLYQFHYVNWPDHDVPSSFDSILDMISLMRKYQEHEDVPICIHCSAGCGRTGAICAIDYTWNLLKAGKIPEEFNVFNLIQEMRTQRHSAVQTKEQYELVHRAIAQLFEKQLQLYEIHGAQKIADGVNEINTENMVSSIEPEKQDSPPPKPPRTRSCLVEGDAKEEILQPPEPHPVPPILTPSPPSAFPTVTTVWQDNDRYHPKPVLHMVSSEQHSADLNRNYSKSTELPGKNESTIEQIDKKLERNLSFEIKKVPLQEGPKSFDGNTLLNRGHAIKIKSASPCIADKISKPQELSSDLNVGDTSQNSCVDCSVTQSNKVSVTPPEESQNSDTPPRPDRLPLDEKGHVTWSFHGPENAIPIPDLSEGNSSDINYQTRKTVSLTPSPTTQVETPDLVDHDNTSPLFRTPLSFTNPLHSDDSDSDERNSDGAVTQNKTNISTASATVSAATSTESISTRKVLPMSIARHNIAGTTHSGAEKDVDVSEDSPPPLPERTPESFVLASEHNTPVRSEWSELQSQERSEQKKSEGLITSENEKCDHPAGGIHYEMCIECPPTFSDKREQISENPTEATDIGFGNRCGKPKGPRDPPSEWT
# UniProt Q8IXJ6: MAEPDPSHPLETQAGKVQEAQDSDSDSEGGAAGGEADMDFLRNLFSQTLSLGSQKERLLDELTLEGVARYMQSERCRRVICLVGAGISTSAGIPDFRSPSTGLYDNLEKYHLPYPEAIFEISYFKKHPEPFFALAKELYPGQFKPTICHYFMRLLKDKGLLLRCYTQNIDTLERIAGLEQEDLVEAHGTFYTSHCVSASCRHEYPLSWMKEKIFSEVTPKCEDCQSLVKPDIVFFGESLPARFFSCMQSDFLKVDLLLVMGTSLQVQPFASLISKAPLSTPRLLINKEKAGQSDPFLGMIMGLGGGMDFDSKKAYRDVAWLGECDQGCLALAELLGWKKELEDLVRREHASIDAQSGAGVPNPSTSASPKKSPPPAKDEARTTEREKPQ
# UniProt Q13464: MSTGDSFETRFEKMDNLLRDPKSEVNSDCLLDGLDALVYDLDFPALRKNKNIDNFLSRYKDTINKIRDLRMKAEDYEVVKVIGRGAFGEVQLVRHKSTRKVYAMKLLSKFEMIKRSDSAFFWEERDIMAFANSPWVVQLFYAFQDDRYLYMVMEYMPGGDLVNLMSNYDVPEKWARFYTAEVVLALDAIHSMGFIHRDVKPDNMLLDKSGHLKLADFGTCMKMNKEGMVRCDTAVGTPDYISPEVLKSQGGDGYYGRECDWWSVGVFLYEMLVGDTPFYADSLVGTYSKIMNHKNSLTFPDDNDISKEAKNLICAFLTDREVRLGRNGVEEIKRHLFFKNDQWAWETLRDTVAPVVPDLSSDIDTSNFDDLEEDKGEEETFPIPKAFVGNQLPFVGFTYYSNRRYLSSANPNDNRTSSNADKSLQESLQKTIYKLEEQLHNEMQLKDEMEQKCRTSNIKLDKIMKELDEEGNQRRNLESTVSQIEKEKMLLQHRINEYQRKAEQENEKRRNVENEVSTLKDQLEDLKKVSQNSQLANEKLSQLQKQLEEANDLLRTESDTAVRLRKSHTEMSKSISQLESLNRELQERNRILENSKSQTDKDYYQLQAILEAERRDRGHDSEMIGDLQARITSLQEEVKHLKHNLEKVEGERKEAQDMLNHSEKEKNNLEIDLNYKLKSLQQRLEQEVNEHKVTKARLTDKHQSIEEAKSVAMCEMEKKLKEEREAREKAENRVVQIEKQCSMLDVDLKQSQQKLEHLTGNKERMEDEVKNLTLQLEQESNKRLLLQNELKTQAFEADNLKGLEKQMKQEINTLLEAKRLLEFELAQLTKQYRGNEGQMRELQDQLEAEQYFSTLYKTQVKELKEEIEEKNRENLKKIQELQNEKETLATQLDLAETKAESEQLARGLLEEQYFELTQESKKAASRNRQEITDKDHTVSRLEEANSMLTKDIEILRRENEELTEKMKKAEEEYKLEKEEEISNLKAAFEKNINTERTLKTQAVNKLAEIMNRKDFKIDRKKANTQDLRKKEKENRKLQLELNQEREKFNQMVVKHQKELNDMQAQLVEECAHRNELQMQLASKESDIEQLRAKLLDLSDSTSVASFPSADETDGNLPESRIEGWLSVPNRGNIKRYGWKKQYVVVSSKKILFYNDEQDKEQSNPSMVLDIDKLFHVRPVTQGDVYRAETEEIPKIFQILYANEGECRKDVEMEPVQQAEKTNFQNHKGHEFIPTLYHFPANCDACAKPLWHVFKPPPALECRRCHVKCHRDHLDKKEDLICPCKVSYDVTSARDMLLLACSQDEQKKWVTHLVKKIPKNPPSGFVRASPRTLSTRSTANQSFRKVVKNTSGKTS
# UniProt P35813: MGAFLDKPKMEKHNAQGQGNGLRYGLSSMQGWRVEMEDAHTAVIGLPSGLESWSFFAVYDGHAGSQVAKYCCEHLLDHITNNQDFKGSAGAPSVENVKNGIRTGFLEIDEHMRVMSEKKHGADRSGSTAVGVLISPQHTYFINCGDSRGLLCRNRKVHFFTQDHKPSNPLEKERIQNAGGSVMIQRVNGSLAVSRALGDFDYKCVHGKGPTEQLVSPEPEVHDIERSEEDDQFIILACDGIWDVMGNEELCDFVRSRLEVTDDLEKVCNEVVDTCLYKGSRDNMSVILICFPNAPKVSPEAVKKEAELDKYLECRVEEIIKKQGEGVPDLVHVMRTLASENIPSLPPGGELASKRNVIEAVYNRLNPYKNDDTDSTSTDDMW
# UniProt P10586, whole entry, looked up: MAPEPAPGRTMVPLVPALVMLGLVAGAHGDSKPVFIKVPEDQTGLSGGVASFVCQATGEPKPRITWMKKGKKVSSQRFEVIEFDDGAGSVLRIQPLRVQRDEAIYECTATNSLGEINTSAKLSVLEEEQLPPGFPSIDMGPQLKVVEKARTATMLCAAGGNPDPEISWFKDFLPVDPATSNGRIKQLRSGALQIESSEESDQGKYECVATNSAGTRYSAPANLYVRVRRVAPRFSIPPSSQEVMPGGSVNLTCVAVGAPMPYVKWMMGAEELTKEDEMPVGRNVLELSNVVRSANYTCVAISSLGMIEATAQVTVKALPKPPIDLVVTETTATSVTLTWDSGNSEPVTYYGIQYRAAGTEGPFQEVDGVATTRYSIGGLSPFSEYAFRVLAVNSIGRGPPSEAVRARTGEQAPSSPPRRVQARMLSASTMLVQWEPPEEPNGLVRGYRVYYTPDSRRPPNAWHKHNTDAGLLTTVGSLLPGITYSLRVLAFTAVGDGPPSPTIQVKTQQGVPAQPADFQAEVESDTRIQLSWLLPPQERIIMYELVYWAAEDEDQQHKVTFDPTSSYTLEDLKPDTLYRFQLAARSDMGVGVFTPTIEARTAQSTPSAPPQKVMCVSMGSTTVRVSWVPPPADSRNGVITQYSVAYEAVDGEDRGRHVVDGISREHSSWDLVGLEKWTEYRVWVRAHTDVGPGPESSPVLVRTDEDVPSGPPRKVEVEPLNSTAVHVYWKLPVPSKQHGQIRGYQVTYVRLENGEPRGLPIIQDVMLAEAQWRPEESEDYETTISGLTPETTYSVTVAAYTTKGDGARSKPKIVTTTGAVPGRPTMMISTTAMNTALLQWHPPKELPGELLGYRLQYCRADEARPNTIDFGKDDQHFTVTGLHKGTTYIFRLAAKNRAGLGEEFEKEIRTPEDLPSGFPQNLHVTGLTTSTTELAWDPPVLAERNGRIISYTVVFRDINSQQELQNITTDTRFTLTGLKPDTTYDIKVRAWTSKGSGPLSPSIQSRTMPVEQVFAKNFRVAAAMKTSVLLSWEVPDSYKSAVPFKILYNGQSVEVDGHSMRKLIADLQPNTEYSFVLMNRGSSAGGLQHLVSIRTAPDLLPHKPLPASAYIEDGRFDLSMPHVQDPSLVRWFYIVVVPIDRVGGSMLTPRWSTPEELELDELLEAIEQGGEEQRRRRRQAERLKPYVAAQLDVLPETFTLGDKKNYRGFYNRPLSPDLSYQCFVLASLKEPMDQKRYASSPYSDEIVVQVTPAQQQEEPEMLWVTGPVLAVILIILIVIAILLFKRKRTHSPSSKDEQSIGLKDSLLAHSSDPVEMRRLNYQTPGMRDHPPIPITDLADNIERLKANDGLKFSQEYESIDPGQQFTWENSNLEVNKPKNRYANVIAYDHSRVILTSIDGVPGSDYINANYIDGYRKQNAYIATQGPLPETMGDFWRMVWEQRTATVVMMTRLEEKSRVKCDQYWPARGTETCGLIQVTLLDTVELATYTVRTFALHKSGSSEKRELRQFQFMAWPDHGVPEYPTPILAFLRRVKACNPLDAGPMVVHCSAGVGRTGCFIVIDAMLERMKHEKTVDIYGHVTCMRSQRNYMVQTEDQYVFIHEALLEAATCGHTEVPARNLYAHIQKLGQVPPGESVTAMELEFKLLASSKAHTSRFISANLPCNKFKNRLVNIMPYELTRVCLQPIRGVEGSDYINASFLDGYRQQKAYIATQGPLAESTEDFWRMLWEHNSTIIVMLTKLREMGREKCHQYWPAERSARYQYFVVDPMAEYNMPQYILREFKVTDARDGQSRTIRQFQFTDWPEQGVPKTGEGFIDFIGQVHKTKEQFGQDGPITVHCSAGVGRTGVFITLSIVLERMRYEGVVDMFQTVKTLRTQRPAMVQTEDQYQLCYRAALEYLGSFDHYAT
# The inconclusive results got no clear call from the source; some entries with a clear call stand among them for comparison. For some assays here: Potencies beside an inconclusive call are fits to weak or partial responses and may not hold up. Activity calls are given as the source filed them. The calls were made as follows: active = hit-call score of the fitted dose curve at least 0.9, where 1 is the maximum; inconclusive = response in the unintended direction; inactive = score below 0.9.
# Experiments:
# [1] = target: human Phosphodiesterase 10 (PDE10), PDE10A (gene 10846) (UniProt Q9Y233); test: NVS_ENZ_hPDE10: NovaScreen (NVS) Enzymatic Assay for human Phosphodiesterase 10 (PDE10) (AID 2283195)
# Summary of the method: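 Fluorescence readout after mobility-shift separation of substrate and product, 1 h reaction with recombinant human enzyme. Single-concentration duplicates at 25 uM, then concentration-response up to 50 uM for chemicals reaching threshold; DMSO baseline.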
# [2] = target: human Matrix Metalloproteinase-9 (MMP9), MMP9 (gene 4318) (UniProt P14780); test: NVS_ENZ_hMMP9: NovaScreen (NVS) Enzymatic Assay for human Matrix Metalloproteinase-9 (MMP9) (AID 2283190);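 also: cell-free recombinant MMP9 protease activity read by fluorescent substrate signal; active means inhibition seen as loss of fluorescence signal versus DMSO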
# Summary of the method: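 Screening concentration 25 uM, duplicate wells, then dose series for confirmation. Cell-free enzymatic reaction measured by fluorescence intensity 1 h post-dosing; decreased signal versus DMSO taken as activity.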
# [3] = target: human Phosphodiesterase 4A1 (PDE4A1), PDE4A (gene 5141) (UniProt P27815); test: NVS_ENZ_hPDE4A1: NovaScreen (NVS) Enzymatic Assay for human Phosphodiesterase 4A1 (PDE4A1) (AID 2283191)
# Summary of the method: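 Fluorescent substrate turnover by recombinant PDE4A1 read after 1 h by mobility-shift separation. Primary duplicate screen at 25 uM; hits retested in concentration series with a 50 uM maximum, relative to DMSO.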
# [4] = target: Tyrosine-protein phosphatase non-receptor type 12 (Homo sapiens) (UniProt Q05209); test: NVS_ENZ_hPTPN12: NovaScreen (NVS) Enzymatic Assay for human Protein Tyrosine Phosphatase Non-receptor Type 12 (PTPN12) (AID 2283204)
# Summary of the method: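 Single-concentration duplicates (25 uM) preceded singleton concentration-response up to 50 uM for chemicals passing threshold. Cell-free recombinant PTPN12 activity was read 1.33 h after dosing via fluorescence after mobility-shift separation; loss of signal versus DMSO.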
# [5] = target: human Sirtuin 2 (SIRT2), SIRT2 (gene 22933) (UniProt Q8IXJ6); test: NVS_ENZ_hSIRT2: NovaScreen (NVS) Enzymatic Assay for human Sirtuin 2 (SIRT2) (AID 2283217)
# Summary of the method: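 Single-point duplicate screen at 25 uM, then concentration-response (max 50 uM) for chemicals passing threshold. Enzyme activity of recombinant human SIRT2 measured after 1 hr by fluorescence with mobility-shift separation of product; DMSO baseline.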
# [6] = target: human Rho Associated Coiled-coil Containing Protein Kinase 1 (ROCK1), ROCK1 (gene 6093) (UniProt Q13464); test: NVS_ENZ_hROCK1: NovaScreen (NVS) Enzymatic Assay for human Rho Associated Coiled-coil Containing Protein Kinase 1 (ROCK1) (AID 2283214)
# Summary of the method: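 Compounds first run in duplicate at 25 uM against recombinant human ROCK1, then followed in concentration series. Kinase activity was read 1 h post-dosing by fluorescence with mobility-shift separation, as signal loss relative to DMSO.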
# [7] = target: cAMP-dependent protein kinase catalytic subunit alpha (Homo sapiens) (UniProt P17612); test: NVS_ENZ_hPKA: NovaScreen (NVS) Enzymatic Assay for human Protein Kinase A (PKA) (AID 2283192)
# Summary of the method: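 Cell-free kinase activity read by fluorescence after mobility-shift separation of substrate and product, 1 h post-dosing. Single-concentration duplicate screen (25 uM) preceded singleton concentration series (top 50 uM); loss of signal versus DMSO.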
# [8] = target: human Protein Tyrosine Phosphatase Non-receptor Type 1 (PTPN1), PTPN1 (gene 5770) (UniProt P18031); test: NVS_ENZ_hPTPN1: NovaScreen (NVS) Enzymatic Assay for human Protein Tyrosine Phosphatase Non-receptor Type 1 (PTPN1) (AID 2283201)
# Summary of the method: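 Chemicals were first tested in duplicate at 25 uM, and those passing threshold went on to singleton concentration series topping at 50 uM. Recombinant enzyme, specific substrate, product separated by mobility shift, fluorescence read at 1.33 h; activity loss relative to DMSO.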
# [9] = target: human Protein Phosphatase, Mg2+/Mn2+ Dependent 1A (PPM1A), PPM1A (gene 5494) (UniProt P35813); test: NVS_ENZ_hPPM1A: NovaScreen (NVS) Enzymatic Assay for human Protein Phosphatase, Mg2+/Mn2+ Dependent 1A (PPM1A) (AID 2283198)
# Summary of the method: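 Primary screen in duplicate at 25 uM, with actives then titrated to a maximum of 50 uM. Recombinant PPM1A dephosphorylation of fluorescent substrate measured at 1 h, with substrate and product separated by mobility shift; inhibition fitted against DMSO.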
# [10] = target: Serine/threonine-protein phosphatase PP1-alpha catalytic subunit (Homo sapiens) (UniProt P62136); test: NVS_ENZ_hPPP1CA: NovaScreen (NVS) Enzymatic Assay for human Protein Phosphatase 1 Aatalytic subunit Alpha (PPP1CA) (AID 2283200)
# Summary of the method: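 Chemicals were first screened in duplicate at 25 uM, and those passing threshold (e.g. 30% inhibition) were run as concentration series to 50 uM. Cell-free recombinant protein, 1.33 h read, fluorescent substrate/product mobility-shift detection, normalised to DMSO.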
# [11] = target: Tyrosine-protein phosphatase non-receptor type 11 (Homo sapiens) (UniProt Q06124); test: NVS_ENZ_hPTPN11: NovaScreen (NVS) Enzymatic Assay for human Protein Tyrosine Phosphatase Non-receptor Type 11 (PTPN11) (AID 2283202)
# Summary of the method: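 Compounds first tested in duplicate at 25 uM; those reaching ~30% inhibition rerun in singleton concentration-response, top 50 uM. Phosphatase activity measured after 0.5 h by fluorescence with mobility-shift separation, relative to DMSO.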
# [12] = target: Tyrosine-protein phosphatase non-receptor type 13 (Homo sapiens) (UniProt Q12923); test: NVS_ENZ_hPTPN13: NovaScreen (NVS) Enzymatic Assay for human Protein Tyrosine Phosphatase Non-receptor Type 13 (PTPN13) (AID 2283205)
# Summary of the method: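 Screened first at a single 25 uM in duplicate; compounds passing the threshold (e.g. 30% inhibition) were rerun in concentration series, top 50 uM. Recombinant enzyme, fluorescent substrate, mobility-shift separation, 0.5 h read. Data fitted as inhibition relative to DMSO.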
# [13] = target: human Protein Tyrosine Phosphatase Receptor Type F (PTPRF), PTPRF (gene 5792) (UniProt P10586); test: NVS_ENZ_hPTPRF: NovaScreen (NVS) Enzymatic Assay for human Protein Tyrosine Phosphatase Receptor Type F (PTPRF) (AID 2283213)
# Summary of the method: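 Cell-free fluorescence enzyme assay with recombinant protein and substrate; product separated by electrophoretic mobility shift. Read 1 h after dosing, single 25 uM duplicate screen, then concentration-response up to 50 uM; loss of signal vs DMSO.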
# [14] = target: human Protein Tyrosine Phosphatase Receptor Type M (PTPRM), PTPRM (gene 5797) (UniProt P28827); test: NVS_ENZ_hPTPRM: NovaScreen (NVS) Enzymatic Assay for human Protein Tyrosine Phosphatase Receptor Type M (PTPRM) (AID 2283215)
# Summary of the method: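 Read-out is fluorescence after electrophoretic separation of substrate and product, taken 1.33 h post-dosing with recombinant enzyme. Compounds screened at 25 uM in duplicate, then concentration series for actives; activity as signal loss relative to DMSO.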
# [15] = target: human Protein Tyrosine Phosphatase Non-receptor Type 6 (PTPN6), PTPN6 (gene 5777) (UniProt P29350); test: NVS_ENZ_hPTPN6: NovaScreen (NVS) Enzymatic Assay for human Protein Tyrosine Phosphatase Non-receptor Type 6 (PTPN6) (AID 2283210)
# Summary of the method: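 Recombinant human PTPN6 from SF9 cells, enzyme activity followed by fluorescence after mobility-shift separation of substrate and product at 1.33 h. Chemicals first tested at a single 25 uM in duplicate, then confirmed across concentration series; loss of signal relative to DMSO.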
# [16] = target: human Phosphoinositide 3-kinase alpha (PI3Ka), PIK3CA (gene 5290) (UniProt P42336); test: NVS_ENZ_hPI3Ka: NovaScreen (NVS) Enzymatic Assay for human Phosphoinositide 3-kinase alpha (PI3Ka) (AID 2283196)
# Summary of the method: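 Duplicate single-point screen (25 uM), then singleton dose-response (max 50 uM) for compounds meeting the threshold. Cell-free kinase reaction, 1 h; fluorescent mobility-shift readout.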
smiles,measurement,setting,value
Cn1cccc1,AC50,[1],active: 5.59 µM
CCCOC(=O)CC,AC50,[2],active: 6.89 µM
Cn1c(=O)cc(Oc2ccc(F)cc2F)c2cnc(NCC(C)(C)O)nc21,AC50,[3],active: 0.914 µM
same,AC50,[1],active: 8.25 µM
CC(C)(C)c1csc(-c2cc3cc(OCc4ccccc4CC(=O)O)ccc3o2)n1,AC50,[3],inconclusive: 0.11 µM
same,AC50,[4],inconclusive: 0.118 µM
same,outcome,[5],inactive
NCc1ccco1,AC50,[1],inconclusive: 25 µM
Cc1ccc(C(C)C)c(O)c1,AC50,[3],inconclusive: 25 µM
same,AC50,[6],inconclusive: 25 µM
CC(=O)O[C@]1(C(C)=O)CC[C@H]2[C@@H]3C[C@H](C)C4=CC(=O)CC[C@]4(C)[C@H]3CC[C@@]21C,outcome,[2],inactive
CCc1cc(C2=C(C(=O)O)N(c3ccccc3C(F)(F)F)S(=O)(=O)c3ccccc32)cc2c1OCO2,outcome,[1],inactive
NC(=O)N1C(=O)C(C(=O)c2cc(Cl)cs2)c2cc(F)c(Cl)cc21 (centres undefined),AC50,[7],active: 25 µM
COc1cc(C(=O)NC2CCN(C)CC2)ccc1Nc1ncc2c(n1)N(C1CCCC1)CC(F)(F)C(=O)N2C,AC50,[7],active: 6.04 µM
same,AC50,[8],inconclusive: 8.48 µM
CC(=O)OCCOCCOCCOC(C)=O,AC50,[3],inconclusive: 25 µM
same,outcome,[6],inactive
CC(C)c1nnc2ccc(-c3ocnc3-c3cc(F)ccc3F)cn12,AC50,[3],inconclusive: 25 µM
same,AC50,[9],inconclusive: 25 µM
CC(=O)CCc1ccccc1,outcome,[1],inactive
CCCCCCCCCCC,AC50,[3],inconclusive: 0.177 µM
Cc1nc(-c2ccccn2)ncc1C(=O)Nn1cc(C)c2cc(F)ccc21,AC50,[3],inconclusive: 25 µM
same,AC50,[7],inconclusive: 25 µM
same,AC50,[10],inconclusive: 25 µM
same,outcome,[11],inactive
same,AC50,[12],active: 33.8 µM
same,AC50,[13],inconclusive: 0.506 µM
CCN(CC)c1ccc2c(C)cc(=O)oc2c1,outcome,[1],inactive
O=C(O)C[C@H](O)C[C@H](O)/C=C/c1c(C2CC2)nc2ccccc2c1-c1ccc(F)cc1,AC50,[1],inconclusive: 6.25 µM
Cc1cccc(C)c1O,AC50,[3],inconclusive: 25 µM
same,AC50,[1],inconclusive: 25 µM
COCC(C)OCC(C)O (centres undefined),AC50,[3],inconclusive: 25 µM
same,AC50,[7],inconclusive: 25 µM
same,AC50,[1],inconclusive: 0.189 µM
same,AC50,[8],inconclusive: 44.1 µM
same,AC50,[11],inconclusive: 10.9 µM
same,outcome,[12],inactive
same,AC50,[13],inconclusive: 0.123 µM
same,AC50,[6],inconclusive: 25 µM
same,AC50,[14],inconclusive: 25 µM
CC(C)(C)CC(C)(C)c1ccc(OCCOCC[N+](C)(C)Cc2ccccc2)cc1,AC50,[2],inconclusive: 9.36 µM
C/C=C/C=C/C(=O)O,AC50,[2],inconclusive: 25 µM
C=CCCCCCCCCC=O,AC50,[2],active: 5.07 µM
C=CC(C)(C)O,AC50,[1],inconclusive: 42.1 µM
Clc1nc(Cl)c(Cl)c(Cl)c1Cl,AC50,[3],inconclusive: 25 µM
same,AC50,[1],inconclusive: 44.1 µM
O=C1O[C@H]([C@H](O)CO)C(O)=C1O,AC50,[3],inconclusive: 25 µM
[Cl][Sc]([Cl])[Cl],AC50,[1],active: 1.67 µM
CCN(CC)CC,AC50,[1],inconclusive: 17.1 µM
Cc1nc(-c2ccc3c(c2)CCN(CCC2CCC(NC(=O)/C=C/c4ccc(F)cc4)CC2)CC3)no1 (centres undefined),AC50,[3],inconclusive: 0.0352 µM
O=C(O)Cc1cc(I)c(Oc2ccc(O)c(I)c2)c(I)c1,AC50,[1],active: 3.32 µM
O=C(N[C@@H](Cc1ccccc1)[C@@H](O)C(=O)N1C[C@@H](O)[C@@H](O)C1)c1cc2cc(Cl)ccc2[nH]1,outcome,[3],inactive
Nc1nc(Cl)nc2c1ncn2[C@H]1C[C@H](O)[C@@H](CO)O1,AC50,[3],active: 9.18 µM
CCCC(=O)OCC(COC(=O)CCC)OC(=O)CCC,AC50,[1],inconclusive: 25 µM
CCc1occc(=O)c1O,AC50,[2],active: 6.98 µM
CC(C)CCCCCCCOC(=O)CCCCC(=O)OCCCCCCCC(C)C,AC50,[3],inconclusive: 7.15 µM
same,outcome,[15],inactive
C[C@@H](Oc1ccc(CNC(=O)c2cccnc2Oc2ccc3c(c2)OCO3)c(F)c1)C(=O)O,AC50,[1],active: 7.95 µM
Cc1ccc(C)o1,AC50,[1],inconclusive: 5.95 µM
Cc1c(Cl)c(=O)oc2cc(O)ccc12,AC50,[1],active: 0.582 µM
CCCCCC1CCCC(=O)O1 (centres undefined),outcome,[1],inactive
same,AC50,[16],inconclusive: 0.335 µM
CCOc1ccc(NC(N)=O)cc1,AC50,[1],inconclusive: 0.00229 µM
CCN(CC)c1ccc2c(c1)Oc1cc(N(CC)CC)ccc1C21OC(=O)c2ccccc21,outcome,[1],inactive
N#CCCCC(C#N)CCC#N (centres undefined),outcome,[16],inactive
CC(=O)c1c(C)c([N+](=O)[O-])c(C(C)(C)C)c([N+](=O)[O-])c1C,AC50,[1],inconclusive: 0.529 µM
CC1CCC2CC1C2(C)C (centres undefined),AC50,[16],active: 1.82 µM
O=C=NC1CCC(CC2CCC(N=C=O)CC2)CC1 (centres undefined),outcome,[1],inactive
same,outcome,[16],inactive
C=C(C)[C@H]1CC=C(C)C(=O)C1,outcome,[1],inactive
C=CCOC(=O)C(=C)C,AC50,[1],inconclusive: 15 µM
same,AC50,[16],inconclusive: 30.9 µM
CCOC(=O)C(=O)OCC,outcome,[16],inactive
Brc1ccccn1,outcome,[1],inactive

# Given as tab-separated lines: part of the list above
smiles	measurement	setting	value
CCCOC(=O)CC	AC50	[2]	active: 6.89 µM
Cn1c(=O)cc(Oc2ccc(F)cc2F)c2cnc(NCC(C)(C)O)nc21	AC50	[3]	active: 0.914 µM
same	AC50	[1]	active: 8.25 µM
CC(C)(C)c1csc(-c2cc3cc(OCc4ccccc4CC(=O)O)ccc3o2)n1	AC50	[3]	inconclusive: 0.11 µM
